Source: PubChem BioAssay AID686943 (Drosophila RNAi Screening Center, 2013)
The screen tested about 23,000 reagents; shown is an unselected part of those with a known target gene and a result. 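Extra replicates exist only for a retested subset of genes; insulin dose and duration not given; both raised and lowered dpERK matter.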 A plus sign joins genes that one reagent is predicted to hit. The record does not give: the amount of reagent, the time to read-out.

Purpose: 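Fly genes whose loss alters ERK activation after insulin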 (primary screen)
Cell system: Drosophila S2R+ haemocyte-like cells expressing YFP-tagged ERK (Rolled)
Knock-down reagent: long dsRNA against Drosophila genes
Conditions: insulin stimulation versus unstimulated cells; dose and duration not given
Read-out: 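Antibody staining for doubly phosphorylated ERK divided by ERK-YFP signal, as plate z-scores, in insulin-treated and untreated cells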
Direction: replicate 1, z-score of dpERK with insulin and replicate 2, z-score of dpERK with insulin: higher = more active ERK per ERK-YFP after insulin; replicate 1, z-score of dpERK under basal conditions: higher = more basal active ERK per ERK-YFP; replicate 1, z-score of ERK-YFP with insulin: higher = more YFP-tagged ERK signal

no.	target gene	dsRNA	replicate 1, z-score of dpERK with insulin	replicate 2, z-score of dpERK with insulin	replicate 1, z-score of dpERK under basal conditions	replicate 1, z-score of ERK-YFP with insulin
1	dpr6	DRSC09005	-3.18	-3.75	-3.31	-1.4
2	dpr6	DRSC10162	-0.26	0.27	-1.36	0.29
3	dpr6	DRSC10163	0.14	1.4	2.06	0.21
4	CG8665	DRSC03098	-0.21	-0.1	-1.67	0.61
5	Veneno	DRSC16537	-0.21	0.61	0.64	1.29
6	CG6034	DRSC10572	0.44	0.53	1.01	0.11
7	Ir76b	DRSC10831	-0.86	0.43	-0.12	1.46
8	Rat1	DRSC02044	0.79	-0.18	-0.1	-0.19
9	CG13315	DRSC09986	-0.65	-0.11	0.13	0.63
10	bowl	DRSC00805	-0.2	0.16	0.59	-0.16
11	Ugt37C2	DRSC02247	-1.13	0.19	0.66	0.58
12	sd	DRSC20370	0.5	-0.25	-0.25	-0.51
13	sd	DRSC21712	0.69	0.31	-0.99	0.15
14	CG12118	DRSC17813	0.49	1.32	1.62	0.31
15	HDAC6	DRSC20252	-0.34	0.37	0.24	0.47
16	LysX	DRSC08678	-0.02	0.13	0.93	0.77
17	CG6793	DRSC10714	0.97	0.29	-0.01	0.37
18	CG18545	DRSC15343	-0.26	0.27	0.6	0.65
19	CG6788	DRSC20007	0.46	-0.12	-0.27	-0.3
20	Cyp4d21	DRSC03305	0.98	-0.04	0.19	-0.01
21	CG15536	DRSC15072	0.08	1.73	0.23	-0.16
22	CG15536	DRSC22844	0.32	-0.14	-0.15	-0.18
23	Tif-IA	DRSC03717	0.06	0.37	-0.72	0.59
24	Tif-IA	DRSC03726	-0.05	0.19	-0.07	0.86
25	GstD6	DRSC16687	0.3	0.27	0.59	0.28
26	Buffy	DRSC05957	-0.45	1.01	-0.64	0.34
27	Gle1	DRSC06485	-0.11	-0.69	-0.02	0.29

Laid out differently: results already given
{"target gene": "Ugt37C2", "dsRNA": "DRSC02247", "replicate 1, z-score of dpERK with insulin": -1.13, "replicate 2, z-score of dpERK with insulin": 0.19, "replicate 1, z-score of dpERK under basal conditions": 0.66, "replicate 1, z-score of ERK-YFP with insulin": 0.58}
{"target gene": "sd", "dsRNA": "DRSC20370", "replicate 1, z-score of dpERK with insulin": 0.5, "replicate 2, z-score of dpERK with insulin": -0.25, "replicate 1, z-score of dpERK under basal conditions": -0.25, "replicate 1, z-score of ERK-YFP with insulin": -0.51}
{"target gene": "sd", "dsRNA": "DRSC21712", "replicate 1, z-score of dpERK with insulin": 0.69, "replicate 2, z-score of dpERK with insulin": 0.31, "replicate 1, z-score of dpERK under basal conditions": -0.99, "replicate 1, z-score of ERK-YFP with insulin": 0.15}
{"target gene": "CG12118", "dsRNA": "DRSC17813", "replicate 1, z-score of dpERK with insulin": 0.49, "replicate 2, z-score of dpERK with insulin": 1.32, "replicate 1, z-score of dpERK under basal conditions": 1.62, "replicate 1, z-score of ERK-YFP with insulin": 0.31}
{"target gene": "HDAC6", "dsRNA": "DRSC20252", "replicate 1, z-score of dpERK with insulin": -0.34, "replicate 2, z-score of dpERK with insulin": 0.37, "replicate 1, z-score of dpERK under basal conditions": 0.24, "replicate 1, z-score of ERK-YFP with insulin": 0.47}
{"target gene": "LysX", "dsRNA": "DRSC08678", "replicate 1, z-score of dpERK with insulin": -0.02, "replicate 2, z-score of dpERK with insulin": 0.13, "replicate 1, z-score of dpERK under basal conditions": 0.93, "replicate 1, z-score of ERK-YFP with insulin": 0.77}
{"target gene": "CG6793", "dsRNA": "DRSC10714", "replicate 1, z-score of dpERK with insulin": 0.97, "replicate 2, z-score of dpERK with insulin": 0.29, "replicate 1, z-score of dpERK under basal conditions": -0.01, "replicate 1, z-score of ERK-YFP with insulin": 0.37}
{"target gene": "CG18545", "dsRNA": "DRSC15343", "replicate 1, z-score of dpERK with insulin": -0.26, "replicate 2, z-score of dpERK with insulin": 0.27, "replicate 1, z-score of dpERK under basal conditions": 0.6, "replicate 1, z-score of ERK-YFP with insulin": 0.65}
{"target gene": "CG6788", "dsRNA": "DRSC20007", "replicate 1, z-score of dpERK with insulin": 0.46, "replicate 2, z-score of dpERK with insulin": -0.12, "replicate 1, z-score of dpERK under basal conditions": -0.27, "replicate 1, z-score of ERK-YFP with insulin": -0.3}
{"target gene": "Cyp4d21", "dsRNA": "DRSC03305", "replicate 1, z-score of dpERK with insulin": 0.98, "replicate 2, z-score of dpERK with insulin": -0.04, "replicate 1, z-score of dpERK under basal conditions": 0.19, "replicate 1, z-score of ERK-YFP with insulin": -0.01}
{"target gene": "CG15536", "dsRNA": "DRSC15072", "replicate 1, z-score of dpERK with insulin": 0.08, "replicate 2, z-score of dpERK with insulin": 1.73, "replicate 1, z-score of dpERK under basal conditions": 0.23, "replicate 1, z-score of ERK-YFP with insulin": -0.16}
{"target gene": "CG15536", "dsRNA": "DRSC22844", "replicate 1, z-score of dpERK with insulin": 0.32, "replicate 2, z-score of dpERK with insulin": -0.14, "replicate 1, z-score of dpERK under basal conditions": -0.15, "replicate 1, z-score of ERK-YFP with insulin": -0.18}

More results follow:
no.	target gene	dsRNA	replicate 1, z-score of dpERK with insulin	replicate 2, z-score of dpERK with insulin	replicate 1, z-score of dpERK under basal conditions	replicate 1, z-score of ERK-YFP with insulin
28	kar	DRSC14496	-0.23	-0.19	0.01	0.25
29	eag	DRSC19067	0.64	0.45	0.06	-0.36
30	eag	DRSC20328	-0.28	0.24	-0.22	0.48
31	CG9150	DRSC03148	0.46	1.08	1.03	-0.61
32	ATP8B	DRSC12883	-1.07	-0.47	0.23	0.45
33	ATP8B	DRSC14961	-0.5	0.29	0.06	-0.07
34	CG16799	DRSC06626	0.7	-0.02	0.58	-0.45
35	CG16799	DRSC21553	-1.24	0.08	-0.47	-0.22
36	PGRP-LD + Pmi	DRSC10512	-0.16	0.35	-1.45	0.68
37	PGRP-LD + Pmi	DRSC10513	1.12	0.49	0.63	-0.23
38	Pdfr	DRSC18614	-1.51	1.02	-1.7	0.38
39	KdelR	DRSC03353	-0.12	0.35	0.22	-0.42
40	sigmar	DRSC04449	0.98	0.52	0.18	-0.03
41	CG5608	DRSC15841	-0.07	0.26	-0.38	1.36
42	Coq2	DRSC16516	0.95	-0.31	-1.31	-0.41
43	Coq2	DRSC21366	-0.33	-0.06	-0.46	-0.1
44	CG7366	DRSC10825	0.65	0.36	0.49	-0.01
45	wda	DRSC15579	1.04	0.61	0.34	-1.41
46	wda	DRSC22351	0.74	0.2	0.07	-1.32
47	CG10749	DRSC09798	0.13	-0.35	-0.29	0.73
48	LPCAT	DRSC18157	0.52	0.28	-0.25	0.85
49	LPCAT	DRSC18257	0.28	0.27	-0.06	0.19
50	PpV	DRSC18700	-1.17	1.17	0.67	-0.44
51	CG12498	DRSC18635	0.26	-0.05	-0.13	-0.09
52	aqz + CG9837	DRSC12709	1.58	1.52	0.07	-0.68
53	Gr43a	DRSC06658	0.39	0.14	0.36	0.23
54	CG13924	DRSC08393	2.34	-0.93	0.01	-0.03
55	CG6000	DRSC15938	0.38	0.23	-0.38	0.17
56	CG31710	DRSC01089	0.13	0.77	0.19	0.24
57	CG31710	DRSC22863	-0.4	0.28	-1.87	0.5
58	CG32437	DRSC11760	0.01	-0.23	-0.63	0.04
59	CG32437	DRSC22020	0.04	0.58	0.61	-0.27
60	nac	DRSC16520	-0.18	0.23	2.03	-1.11
61	Ugt303A1	DRSC15641	-0.47	-0.01	-0.19	-0.42
62	CG42699	DRSC18076	0.11	0.47	-0.3	-0.09
63	CG42699	DRSC18341	0.54	-0.5	0.57	-0.03
64	CG16717	DRSC10221	0.64	0.19	-0.47	-0.11
65	CG17026	DRSC10237	0.68	0.44	0.2	-0.06
66	CG7889	DRSC20066	0.22	-0.36	-0.27	-0.45
67	CG3253	DRSC04350	0.31	-0.15	0.86	-0.18
68	CG4577	DRSC00658	0.49	-0.51	1.38	0.19
69	Madm	DRSC12129	-0.12	-0.17	0.35	1.19
70	arm	DRSC18738	0.46	0.28	0.36	1.75
71	CG42560 + CG42559	DRSC21873	-0.06	0.4	-0.41	-0.44
72	CG1304	DRSC20494	0.38	0.05	-0.15	0.16
73	CG34188	DRSC05549	0.29	0.85	-0.76	-0.86
